{"sequences": {"note": "By UniProt entry, the sequences of proteins in these tests, tags left out. Where a name states a change or a piece, a line headed by the entry shows the natural chain unless it says otherwise.", "UniProt O00151": "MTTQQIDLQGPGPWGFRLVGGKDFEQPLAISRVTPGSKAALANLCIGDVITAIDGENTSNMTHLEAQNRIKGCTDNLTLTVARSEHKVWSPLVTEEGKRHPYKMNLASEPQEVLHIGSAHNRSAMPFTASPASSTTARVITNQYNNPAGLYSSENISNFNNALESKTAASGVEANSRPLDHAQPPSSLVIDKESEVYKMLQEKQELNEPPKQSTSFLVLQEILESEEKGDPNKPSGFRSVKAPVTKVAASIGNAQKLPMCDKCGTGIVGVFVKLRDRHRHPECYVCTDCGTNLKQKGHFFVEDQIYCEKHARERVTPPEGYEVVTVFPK", "UniProt Q9GZP4": "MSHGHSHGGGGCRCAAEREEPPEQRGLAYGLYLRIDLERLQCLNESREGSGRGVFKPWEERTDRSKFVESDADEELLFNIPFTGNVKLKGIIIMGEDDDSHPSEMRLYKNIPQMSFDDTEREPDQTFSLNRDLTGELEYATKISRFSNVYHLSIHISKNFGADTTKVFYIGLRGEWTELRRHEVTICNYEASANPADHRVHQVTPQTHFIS", "UniProt P78356": "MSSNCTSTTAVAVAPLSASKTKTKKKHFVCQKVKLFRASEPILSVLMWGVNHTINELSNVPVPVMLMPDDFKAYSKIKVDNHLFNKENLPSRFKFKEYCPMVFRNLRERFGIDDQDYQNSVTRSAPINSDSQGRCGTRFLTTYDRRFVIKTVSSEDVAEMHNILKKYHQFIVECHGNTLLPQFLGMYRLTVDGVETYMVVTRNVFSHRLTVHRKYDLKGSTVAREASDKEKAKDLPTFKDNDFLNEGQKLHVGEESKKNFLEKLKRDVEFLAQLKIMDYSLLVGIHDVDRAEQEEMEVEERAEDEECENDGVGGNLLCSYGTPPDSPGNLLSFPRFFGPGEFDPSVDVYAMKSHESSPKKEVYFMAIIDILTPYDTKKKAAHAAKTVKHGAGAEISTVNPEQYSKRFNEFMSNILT", "UniProt O75817": "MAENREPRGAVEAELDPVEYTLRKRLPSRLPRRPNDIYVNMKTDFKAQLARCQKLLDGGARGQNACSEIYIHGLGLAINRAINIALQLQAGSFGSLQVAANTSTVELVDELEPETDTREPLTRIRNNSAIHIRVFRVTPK", "UniProt Q9UPR0": "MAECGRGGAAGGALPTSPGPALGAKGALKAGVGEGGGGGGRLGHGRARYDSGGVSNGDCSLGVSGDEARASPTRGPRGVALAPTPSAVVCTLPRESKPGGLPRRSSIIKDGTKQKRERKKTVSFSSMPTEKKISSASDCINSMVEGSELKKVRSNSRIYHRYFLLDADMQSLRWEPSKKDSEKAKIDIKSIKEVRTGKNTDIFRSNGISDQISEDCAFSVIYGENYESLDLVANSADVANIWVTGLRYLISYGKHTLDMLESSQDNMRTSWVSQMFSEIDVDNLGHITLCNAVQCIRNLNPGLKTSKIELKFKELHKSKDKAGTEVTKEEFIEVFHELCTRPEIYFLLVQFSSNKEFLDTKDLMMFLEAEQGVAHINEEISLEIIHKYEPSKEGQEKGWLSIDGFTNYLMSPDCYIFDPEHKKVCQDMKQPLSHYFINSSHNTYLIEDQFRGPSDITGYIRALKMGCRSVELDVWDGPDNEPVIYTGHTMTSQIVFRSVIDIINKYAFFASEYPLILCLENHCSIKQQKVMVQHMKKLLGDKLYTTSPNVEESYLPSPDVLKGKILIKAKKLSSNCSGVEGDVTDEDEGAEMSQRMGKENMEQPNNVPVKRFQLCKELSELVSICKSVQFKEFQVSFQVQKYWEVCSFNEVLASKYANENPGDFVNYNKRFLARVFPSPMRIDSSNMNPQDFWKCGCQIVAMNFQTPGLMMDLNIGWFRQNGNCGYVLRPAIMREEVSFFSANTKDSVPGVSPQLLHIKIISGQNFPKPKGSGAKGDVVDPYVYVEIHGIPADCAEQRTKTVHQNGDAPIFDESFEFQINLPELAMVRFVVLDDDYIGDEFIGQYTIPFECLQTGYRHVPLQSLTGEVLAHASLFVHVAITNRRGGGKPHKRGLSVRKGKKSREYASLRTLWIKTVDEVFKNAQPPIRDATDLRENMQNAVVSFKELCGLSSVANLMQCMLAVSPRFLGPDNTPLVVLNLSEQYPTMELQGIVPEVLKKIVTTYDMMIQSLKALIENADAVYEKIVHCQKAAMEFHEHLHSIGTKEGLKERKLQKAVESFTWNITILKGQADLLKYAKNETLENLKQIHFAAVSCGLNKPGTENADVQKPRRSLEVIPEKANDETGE", "UniProt Q15435": "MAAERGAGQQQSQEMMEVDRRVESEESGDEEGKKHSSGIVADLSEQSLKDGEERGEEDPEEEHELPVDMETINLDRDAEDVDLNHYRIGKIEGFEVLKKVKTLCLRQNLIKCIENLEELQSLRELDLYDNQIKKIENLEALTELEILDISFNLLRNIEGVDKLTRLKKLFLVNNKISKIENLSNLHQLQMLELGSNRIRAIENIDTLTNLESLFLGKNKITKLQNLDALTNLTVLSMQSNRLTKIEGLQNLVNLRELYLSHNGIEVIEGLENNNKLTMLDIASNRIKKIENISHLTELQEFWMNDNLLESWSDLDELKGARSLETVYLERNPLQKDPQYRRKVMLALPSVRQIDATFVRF", "UniProt Q96CD2": "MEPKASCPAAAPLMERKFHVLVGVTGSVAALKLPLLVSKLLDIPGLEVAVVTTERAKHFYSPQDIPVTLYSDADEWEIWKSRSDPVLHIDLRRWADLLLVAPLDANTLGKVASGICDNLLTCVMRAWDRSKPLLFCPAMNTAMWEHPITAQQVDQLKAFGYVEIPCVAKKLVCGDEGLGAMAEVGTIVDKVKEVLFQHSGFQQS", "UniProt P35813": "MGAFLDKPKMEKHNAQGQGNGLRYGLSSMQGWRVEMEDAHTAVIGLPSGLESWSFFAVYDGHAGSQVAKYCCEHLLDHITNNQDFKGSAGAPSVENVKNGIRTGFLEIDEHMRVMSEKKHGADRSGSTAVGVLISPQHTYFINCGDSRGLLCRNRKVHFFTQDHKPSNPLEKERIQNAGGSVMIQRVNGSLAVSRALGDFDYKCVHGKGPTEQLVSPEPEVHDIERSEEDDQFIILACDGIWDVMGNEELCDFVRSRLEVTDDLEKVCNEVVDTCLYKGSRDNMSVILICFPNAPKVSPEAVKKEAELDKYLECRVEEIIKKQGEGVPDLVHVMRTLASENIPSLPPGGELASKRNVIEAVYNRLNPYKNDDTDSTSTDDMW", "UniProt Q9UBV8": "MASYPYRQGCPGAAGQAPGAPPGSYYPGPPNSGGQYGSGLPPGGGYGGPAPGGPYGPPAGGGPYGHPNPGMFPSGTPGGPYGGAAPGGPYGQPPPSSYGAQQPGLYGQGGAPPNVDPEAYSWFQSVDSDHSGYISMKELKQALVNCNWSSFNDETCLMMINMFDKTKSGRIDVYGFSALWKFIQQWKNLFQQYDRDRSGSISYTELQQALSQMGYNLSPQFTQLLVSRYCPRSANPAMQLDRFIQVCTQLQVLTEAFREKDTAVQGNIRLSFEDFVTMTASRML", "UniProt Q9HAU0": "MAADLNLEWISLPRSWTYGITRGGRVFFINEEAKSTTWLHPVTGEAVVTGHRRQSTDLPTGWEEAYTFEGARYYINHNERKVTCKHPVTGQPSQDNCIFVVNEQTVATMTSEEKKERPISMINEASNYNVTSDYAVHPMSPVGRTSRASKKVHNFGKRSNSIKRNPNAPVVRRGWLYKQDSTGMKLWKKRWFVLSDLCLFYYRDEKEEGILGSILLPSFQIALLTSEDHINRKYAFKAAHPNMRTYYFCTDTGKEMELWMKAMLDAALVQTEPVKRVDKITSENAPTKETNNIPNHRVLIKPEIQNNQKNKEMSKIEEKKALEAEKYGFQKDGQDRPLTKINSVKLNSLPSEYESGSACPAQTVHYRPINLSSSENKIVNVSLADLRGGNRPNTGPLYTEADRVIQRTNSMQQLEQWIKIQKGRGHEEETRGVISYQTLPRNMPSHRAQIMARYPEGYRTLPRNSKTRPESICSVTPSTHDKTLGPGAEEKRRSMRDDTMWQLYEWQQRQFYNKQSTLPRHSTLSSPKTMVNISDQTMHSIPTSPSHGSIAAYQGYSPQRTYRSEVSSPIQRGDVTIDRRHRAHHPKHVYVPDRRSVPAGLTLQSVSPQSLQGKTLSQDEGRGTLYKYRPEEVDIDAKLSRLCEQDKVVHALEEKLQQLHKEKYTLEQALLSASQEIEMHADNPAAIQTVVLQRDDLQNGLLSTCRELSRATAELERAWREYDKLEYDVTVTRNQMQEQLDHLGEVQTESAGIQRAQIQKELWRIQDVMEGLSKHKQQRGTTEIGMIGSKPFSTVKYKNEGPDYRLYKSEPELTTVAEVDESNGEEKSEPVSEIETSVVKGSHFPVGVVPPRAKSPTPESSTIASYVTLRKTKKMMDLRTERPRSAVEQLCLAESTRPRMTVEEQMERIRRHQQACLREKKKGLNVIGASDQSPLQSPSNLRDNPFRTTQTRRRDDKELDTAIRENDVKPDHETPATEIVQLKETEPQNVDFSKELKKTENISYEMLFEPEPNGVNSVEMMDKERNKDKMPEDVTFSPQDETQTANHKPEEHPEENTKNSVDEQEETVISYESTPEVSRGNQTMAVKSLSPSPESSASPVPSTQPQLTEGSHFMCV", "UniProt O00329": "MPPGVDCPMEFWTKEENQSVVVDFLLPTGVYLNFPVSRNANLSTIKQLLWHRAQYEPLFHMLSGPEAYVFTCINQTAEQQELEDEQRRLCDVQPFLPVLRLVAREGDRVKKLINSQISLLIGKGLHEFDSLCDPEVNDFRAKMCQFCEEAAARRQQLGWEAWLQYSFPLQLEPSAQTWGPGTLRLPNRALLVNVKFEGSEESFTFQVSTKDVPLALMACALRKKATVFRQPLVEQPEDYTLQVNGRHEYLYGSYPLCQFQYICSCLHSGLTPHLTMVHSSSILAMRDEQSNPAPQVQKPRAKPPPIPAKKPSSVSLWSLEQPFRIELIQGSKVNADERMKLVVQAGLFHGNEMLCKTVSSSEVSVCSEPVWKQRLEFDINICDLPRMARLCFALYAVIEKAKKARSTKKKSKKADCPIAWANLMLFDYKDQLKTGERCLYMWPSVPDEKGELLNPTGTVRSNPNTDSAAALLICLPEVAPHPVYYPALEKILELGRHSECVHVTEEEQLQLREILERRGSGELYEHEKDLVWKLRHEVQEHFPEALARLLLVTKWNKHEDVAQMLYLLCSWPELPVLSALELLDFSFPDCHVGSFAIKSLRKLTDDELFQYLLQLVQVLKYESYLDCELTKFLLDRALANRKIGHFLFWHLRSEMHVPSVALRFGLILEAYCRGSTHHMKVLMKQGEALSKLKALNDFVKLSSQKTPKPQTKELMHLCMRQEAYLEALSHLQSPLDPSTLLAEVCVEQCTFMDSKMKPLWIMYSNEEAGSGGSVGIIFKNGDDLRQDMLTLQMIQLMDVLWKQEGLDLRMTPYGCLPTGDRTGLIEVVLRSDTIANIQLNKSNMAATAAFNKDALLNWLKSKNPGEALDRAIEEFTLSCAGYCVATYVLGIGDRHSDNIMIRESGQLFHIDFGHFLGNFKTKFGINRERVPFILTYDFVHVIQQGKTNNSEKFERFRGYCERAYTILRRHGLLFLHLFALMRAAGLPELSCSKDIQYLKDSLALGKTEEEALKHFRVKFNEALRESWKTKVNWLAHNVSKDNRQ", "UniProt Q96BK5": "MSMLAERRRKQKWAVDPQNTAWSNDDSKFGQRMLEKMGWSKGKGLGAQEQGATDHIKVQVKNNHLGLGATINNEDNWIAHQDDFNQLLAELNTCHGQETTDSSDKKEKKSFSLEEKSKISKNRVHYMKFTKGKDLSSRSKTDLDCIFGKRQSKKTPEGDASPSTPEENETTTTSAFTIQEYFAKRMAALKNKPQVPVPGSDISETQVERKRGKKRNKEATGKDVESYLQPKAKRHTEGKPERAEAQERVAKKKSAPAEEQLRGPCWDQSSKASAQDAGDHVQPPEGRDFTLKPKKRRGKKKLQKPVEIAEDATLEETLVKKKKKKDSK", "UniProt P55347": "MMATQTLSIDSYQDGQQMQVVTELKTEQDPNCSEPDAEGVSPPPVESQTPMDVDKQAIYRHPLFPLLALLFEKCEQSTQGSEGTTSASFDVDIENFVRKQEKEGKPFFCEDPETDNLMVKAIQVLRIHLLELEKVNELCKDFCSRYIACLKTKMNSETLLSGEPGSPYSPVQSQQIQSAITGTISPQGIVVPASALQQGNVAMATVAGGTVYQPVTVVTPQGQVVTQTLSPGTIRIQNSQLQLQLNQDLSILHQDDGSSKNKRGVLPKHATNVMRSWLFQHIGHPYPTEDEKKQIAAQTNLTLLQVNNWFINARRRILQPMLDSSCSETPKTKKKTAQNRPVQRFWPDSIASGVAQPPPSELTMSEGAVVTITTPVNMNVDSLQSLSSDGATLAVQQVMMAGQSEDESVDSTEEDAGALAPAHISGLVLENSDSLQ", "UniProt Q15004": "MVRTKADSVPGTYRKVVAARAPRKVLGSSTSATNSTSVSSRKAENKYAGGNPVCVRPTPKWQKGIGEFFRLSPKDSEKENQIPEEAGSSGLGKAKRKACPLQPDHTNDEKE"}, "source": "the supplement of paper PMC7666118", "note": "The list shows a part of the results.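 Rule for the calls: active = dose-dependent thermal stabilisation significant by F-test of dose-response against flat model at 10% FDR; inactive = not significant.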", "data": [{"compound": "Nc1nc2c(ncn2[C@@H]2O[C@H](COP(=O)(O)OP(=O)(O)OP(=O)(O)O)[C@@H](O)[C@H]2O)c(=O)[nH]1", "experiment": "dose-dependent thermal stabilisation call (2D-TPP, DLPTP, 10% FDR) (binary (1 = stabilised)); higher = stabilised by the compound", "conditions": "system: Jurkat gel-filtered lysate; concentration range 1-500 µM", "values": [{"target": "POLD2 (UniProt P49005)", "dose-dependent thermal stabilisation call": "inactive: 0"}, {"target": "PLXNA1 (UniProt Q9UIW2)", "dose-dependent thermal stabilisation call": "inactive: 0"}, {"target": "PDS5A (UniProt Q29RF7)", "dose-dependent thermal stabilisation call": "inactive: 0"}, {"target": "PDLIM1 (UniProt O00151)", "dose-dependent thermal stabilisation call": "inactive: 0"}, {"target": "PI4KB (UniProt Q9UBF8)", "dose-dependent thermal stabilisation call": "inactive: 0"}, {"target": "PITHD1 (UniProt Q9GZP4)", "dose-dependent thermal stabilisation call": "inactive: 0"}, {"target": "PIP4K2B (UniProt P78356)", "dose-dependent thermal stabilisation call": "inactive: 0"}, {"target": "PPIB (UniProt P23284)", "dose-dependent thermal stabilisation call": "inactive: 0"}, {"target": "PMS2 (UniProt P54278)", "dose-dependent thermal stabilisation call": "active: 1"}, {"target": "PCF11 (UniProt O94913)", "dose-dependent thermal stabilisation call": "inactive: 0"}, {"target": "POP7 (UniProt O75817)", "dose-dependent thermal stabilisation call": "inactive: 0"}, {"target": "POLR3A (UniProt O14802)", "dose-dependent thermal stabilisation call": "inactive: 0"}, {"target": "POLR1C (UniProt O15160)", "dose-dependent thermal stabilisation call": "inactive: 0"}, {"target": "PLCL2 (UniProt Q9UPR0)", "dose-dependent thermal stabilisation call": "inactive: 0"}, {"target": "POLA2 (UniProt Q14181)", "dose-dependent thermal stabilisation call": "inactive: 0"}, {"target": "PPP1R7 (UniProt Q15435)", "dose-dependent thermal stabilisation call": "inactive: 0"}, {"target": "PGM3 (UniProt O95394)", "dose-dependent thermal stabilisation call": "inactive: 0"}, {"target": "PPCDC (UniProt Q96CD2)", "dose-dependent thermal stabilisation call": "inactive: 0"}, {"target": "PPM1A (UniProt P35813)", "dose-dependent thermal stabilisation call": "inactive: 0"}, {"target": "PHF14 (UniProt O94880)", "dose-dependent thermal stabilisation call": "inactive: 0"}, {"target": "POLD3 (UniProt Q15054)", "dose-dependent thermal stabilisation call": "inactive: 0"}, {"target": "PEF1 (UniProt Q9UBV8)", "dose-dependent thermal stabilisation call": "inactive: 0"}, {"target": "PAXIP1 (UniProt Q6ZW49)", "dose-dependent thermal stabilisation call": "inactive: 0"}, {"target": "PLEKHA5 (UniProt Q9HAU0)", "dose-dependent thermal stabilisation call": "inactive: 0"}, {"target": "PIK3CD (UniProt O00329)", "dose-dependent thermal stabilisation call": "active: 1"}, {"target": "PFDN4 (UniProt Q9NQP4)", "dose-dependent thermal stabilisation call": "inactive: 0"}, {"target": "PPIH (UniProt O43447)", "dose-dependent thermal stabilisation call": "inactive: 0"}, {"target": "POGLUT1 (UniProt Q8NBL1)", "dose-dependent thermal stabilisation call": "inactive: 0"}, {"target": "PPIE (UniProt Q9UNP9)", "dose-dependent thermal stabilisation call": "inactive: 0"}, {"target": "POLR2G (UniProt P62487)", "dose-dependent thermal stabilisation call": "inactive: 0"}, {"target": "PPP4R3A (UniProt Q6IN85)", "dose-dependent thermal stabilisation call": "inactive: 0"}, {"target": "PPM1F (UniProt P49593)", "dose-dependent thermal stabilisation call": "inactive: 0"}, {"target": "PGM2 (UniProt Q96G03)", "dose-dependent thermal stabilisation call": "inactive: 0"}, {"target": "PINX1 (UniProt Q96BK5)", "dose-dependent thermal stabilisation call": "inactive: 0"}, {"target": "PKNOX1 (UniProt P55347)", "dose-dependent thermal stabilisation call": "inactive: 0"}, {"target": "PCLAF (UniProt Q15004)", "dose-dependent thermal stabilisation call": "inactive: 0"}]}]}
